# Patent US5767233A, “Soluble cleavable substrates of the hepatitis C virus protease” (Schering Corporation, priority 1995, dated 1998)
# Part of at least one peptide drawing is inferred or uncertain, most often the ends. Square brackets hold non-standard residues; d marks the D form. Peptide text beside a SMILES is read from it. * marks the point of attachment. Biotin = O=C1N[C@H]2[C@H](CS[C@H]2CCCCC(=O)*)N1; pY = N[C@@H](Cc1ccc(OP(=O)(O)O)cc1)C(=O)O
# Key:
# [1] = biological target: T1, soluble HCV NS3 (SEQ ID NO 27) (Hepatitis C virus genotype 1a, UniProt P27958, V1209G); assay: HPLC-assay using a synthetic 5A/5B peptide substrate; format: biochemical; conditions: assay buffer 50 mM sodium phosphate pH 7.8; products separated by reversed-phase HPLC
# T1 construct: made in house; host or cells: E. coli M15 [pREP4]
# [2] = biological target: T2, HCV protease (His-NS3(183)Δ4AHT) (Hepatitis C virus genotype 1a, UniProt P27958, V1209G); assay: BIAcore-based HCV assay (surface plasmon resonance); format: biochemical; conditions: concentrated enzyme, 30° C.
# T2 construct: made in house; host or cells: E. coli (fermentation)
SMILES,cleavage of the synthetic 5A/5B peptide substrate into 5A and 5B [1],time to 50% substrate cleavage [2] [h]
"CSCC[C@H](NC(=O)[C@H](CO)NC(=O)[C@H](CS)NC(=O)[C@H](CS)NC(=O)[C@@H](NC(=O)[C@@H](NC(=O)[C@H](CC(=O)O)NC(=O)[C@H](CCC(=O)O)NC(=O)[C@@H](NC(=O)[C@@H](N)CC(=O)O)[C@@H](C)O)C(C)C)C(C)C)C(=O)N[C@@H](CO)C(=O)N[C@@H](Cc1ccc(O)cc1)C(=O)N[C@H](C(=O)N[C@@H](Cc1c[nH]c2ccccc12)C(=O)N[C@H](C(=O)NCC(=O)N[C@@H](CCCCN)C(=O)O)[C@@H](C)O)[C@@H](C)O [SEQ ID NO 16, DTEDVVCC SMSYTWTGK]",cleaved the substrate into two byproduct peptides,–
"CSCC[C@H](NC(=O)[C@H](CO)NC(=O)[C@H](CS)NC(=O)[C@H](C)NC(=O)[C@@H](NC(=O)[C@@H](NC(=O)[C@H](CC(=O)O)NC(=O)[C@H](CCC(=O)O)NC(=O)[C@@H](NC(=O)[C@H](CC(=O)O)NC(=O)CCCC[C@@H]1SC[C@@H]2NC(=O)N[C@@H]21)[C@@H](C)O)C(C)C)C(C)C)C(=O)N[C@@H](CO)C(=O)N[C@@H](Cc1ccc(O)cc1)C(=O)N[C@H](C(=O)N[C@@H](Cc1c[nH]c2ccccc12)C(=O)N[C@H](C(=O)NCC(=O)N[C@@H](CCCCN)C(=O)N[C@@H](Cc1ccc(OP(=O)(O)O)cc1)C(=O)O)[C@@H](C)O)[C@@H](C)O [SEQ ID NO 17, Biotin-DTEDVVAC SMSYTWTGK-pY] (Biotin-DTEDVVACSMSYTWTGK[pY]-OH)",–,≤ 1
